Measured values reported in the supplement of paper PMC7661543.
Differences between knockout arms are mostly noise.

Test system: SKBR3
Assay: relative cell number vs DMSO control (72 h) (% of DMSO); higher = less growth inhibition (more cells)
Description: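 QMAP-Seq: a pool of 5 breast cancer cell lines (ZR-75-1, SKBR3, HCC-38, MDA-MB-231, BT-20), each carrying 12 doxycycline-inducible Cas9 sgRNA perturbations (11 knockouts plus non-targeting sgNT), was treated with compounds for 72 h at four 10-fold doses (10 nM-10 uM or 1 nM-1 uM range). Barcodes were amplified and sequenced, and cell number was interpolated from 293T spike-in standard curves. The result is expressed as % of the median of DMSO wells. Two biological replicates.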

CS(=O)(=O)N1CCN(Cc2cc3nc(-c4cccc5[nH]ncc45)nc(N4CCOCC4)c3s2)CC1 [GDC0941]
Settings | relative cell number
sgRNA knockout: sgATF3, 10 nM | 113
sgRNA knockout: sgATF3, 100 nM | 90.4
sgRNA knockout: sgATF3, 1000 nM | 37.7
sgRNA knockout: sgATF3, 10000 nM | 34
sgRNA knockout: sgATF4, 10 nM | 82.7
sgRNA knockout: sgATF4, 100 nM | 72
sgRNA knockout: sgATF4, 1000 nM | 37.9
sgRNA knockout: sgATF4, 10000 nM | 29.6
sgRNA knockout: sgATF6, 10 nM | 104
sgRNA knockout: sgATF6, 100 nM | 80
sgRNA knockout: sgATF6, 1000 nM | 42.8
sgRNA knockout: sgATF6, 10000 nM | 36.8
sgRNA knockout: sgATG7, 10 nM | 89
sgRNA knockout: sgATG7, 100 nM | 82.7
sgRNA knockout: sgATG7, 1000 nM | 40.2
sgRNA knockout: sgATG7, 10000 nM | 33.5
sgRNA knockout: sgERN1, 10 nM | 90.2
sgRNA knockout: sgERN1, 100 nM | 91.8
sgRNA knockout: sgERN1, 1000 nM | 44.5
sgRNA knockout: sgERN1, 10000 nM | 36.8
sgRNA knockout: sgHSF1, 10 nM | 87.4
sgRNA knockout: sgHSF1, 100 nM | 83.7
sgRNA knockout: sgHSF1, 1000 nM | 36.4
sgRNA knockout: sgHSF1, 10000 nM | 30.3
sgRNA knockout: sgHSF2, 10 nM | 84.3
sgRNA knockout: sgHSF2, 100 nM | 97.9
sgRNA knockout: sgHSF2, 1000 nM | 44.2
sgRNA knockout: sgHSF2, 10000 nM | 39
sgRNA knockout: sgKEAP1, 10 nM | 90.1
sgRNA knockout: sgKEAP1, 100 nM | 67.9
sgRNA knockout: sgKEAP1, 1000 nM | 40.3
sgRNA knockout: sgKEAP1, 10000 nM | 32.9
sgRNA knockout: sgNFE2L2, 10 nM | 85.9
sgRNA knockout: sgNFE2L2, 100 nM | 86.8
sgRNA knockout: sgNFE2L2, 1000 nM | 41.3
sgRNA knockout: sgNFE2L2, 10000 nM | 34.7
sgRNA knockout: sgSLC35F2, 10 nM | 96.4
sgRNA knockout: sgSLC35F2, 100 nM | 83
sgRNA knockout: sgSLC35F2, 1000 nM | 40.2
sgRNA knockout: sgSLC35F2, 10000 nM | 44.7
sgRNA knockout: sgXBP1, 10 nM | 111
sgRNA knockout: sgXBP1, 100 nM | 81.5
sgRNA knockout: sgXBP1, 1000 nM | 51.1
sgRNA knockout: sgXBP1, 10000 nM | 33.6
